These are yes or no findings as the source states them, for the method shown.

Sequences of proteins named here, by UniProt entry; tags and fusion partners are left off.
UniProt Q3URK3: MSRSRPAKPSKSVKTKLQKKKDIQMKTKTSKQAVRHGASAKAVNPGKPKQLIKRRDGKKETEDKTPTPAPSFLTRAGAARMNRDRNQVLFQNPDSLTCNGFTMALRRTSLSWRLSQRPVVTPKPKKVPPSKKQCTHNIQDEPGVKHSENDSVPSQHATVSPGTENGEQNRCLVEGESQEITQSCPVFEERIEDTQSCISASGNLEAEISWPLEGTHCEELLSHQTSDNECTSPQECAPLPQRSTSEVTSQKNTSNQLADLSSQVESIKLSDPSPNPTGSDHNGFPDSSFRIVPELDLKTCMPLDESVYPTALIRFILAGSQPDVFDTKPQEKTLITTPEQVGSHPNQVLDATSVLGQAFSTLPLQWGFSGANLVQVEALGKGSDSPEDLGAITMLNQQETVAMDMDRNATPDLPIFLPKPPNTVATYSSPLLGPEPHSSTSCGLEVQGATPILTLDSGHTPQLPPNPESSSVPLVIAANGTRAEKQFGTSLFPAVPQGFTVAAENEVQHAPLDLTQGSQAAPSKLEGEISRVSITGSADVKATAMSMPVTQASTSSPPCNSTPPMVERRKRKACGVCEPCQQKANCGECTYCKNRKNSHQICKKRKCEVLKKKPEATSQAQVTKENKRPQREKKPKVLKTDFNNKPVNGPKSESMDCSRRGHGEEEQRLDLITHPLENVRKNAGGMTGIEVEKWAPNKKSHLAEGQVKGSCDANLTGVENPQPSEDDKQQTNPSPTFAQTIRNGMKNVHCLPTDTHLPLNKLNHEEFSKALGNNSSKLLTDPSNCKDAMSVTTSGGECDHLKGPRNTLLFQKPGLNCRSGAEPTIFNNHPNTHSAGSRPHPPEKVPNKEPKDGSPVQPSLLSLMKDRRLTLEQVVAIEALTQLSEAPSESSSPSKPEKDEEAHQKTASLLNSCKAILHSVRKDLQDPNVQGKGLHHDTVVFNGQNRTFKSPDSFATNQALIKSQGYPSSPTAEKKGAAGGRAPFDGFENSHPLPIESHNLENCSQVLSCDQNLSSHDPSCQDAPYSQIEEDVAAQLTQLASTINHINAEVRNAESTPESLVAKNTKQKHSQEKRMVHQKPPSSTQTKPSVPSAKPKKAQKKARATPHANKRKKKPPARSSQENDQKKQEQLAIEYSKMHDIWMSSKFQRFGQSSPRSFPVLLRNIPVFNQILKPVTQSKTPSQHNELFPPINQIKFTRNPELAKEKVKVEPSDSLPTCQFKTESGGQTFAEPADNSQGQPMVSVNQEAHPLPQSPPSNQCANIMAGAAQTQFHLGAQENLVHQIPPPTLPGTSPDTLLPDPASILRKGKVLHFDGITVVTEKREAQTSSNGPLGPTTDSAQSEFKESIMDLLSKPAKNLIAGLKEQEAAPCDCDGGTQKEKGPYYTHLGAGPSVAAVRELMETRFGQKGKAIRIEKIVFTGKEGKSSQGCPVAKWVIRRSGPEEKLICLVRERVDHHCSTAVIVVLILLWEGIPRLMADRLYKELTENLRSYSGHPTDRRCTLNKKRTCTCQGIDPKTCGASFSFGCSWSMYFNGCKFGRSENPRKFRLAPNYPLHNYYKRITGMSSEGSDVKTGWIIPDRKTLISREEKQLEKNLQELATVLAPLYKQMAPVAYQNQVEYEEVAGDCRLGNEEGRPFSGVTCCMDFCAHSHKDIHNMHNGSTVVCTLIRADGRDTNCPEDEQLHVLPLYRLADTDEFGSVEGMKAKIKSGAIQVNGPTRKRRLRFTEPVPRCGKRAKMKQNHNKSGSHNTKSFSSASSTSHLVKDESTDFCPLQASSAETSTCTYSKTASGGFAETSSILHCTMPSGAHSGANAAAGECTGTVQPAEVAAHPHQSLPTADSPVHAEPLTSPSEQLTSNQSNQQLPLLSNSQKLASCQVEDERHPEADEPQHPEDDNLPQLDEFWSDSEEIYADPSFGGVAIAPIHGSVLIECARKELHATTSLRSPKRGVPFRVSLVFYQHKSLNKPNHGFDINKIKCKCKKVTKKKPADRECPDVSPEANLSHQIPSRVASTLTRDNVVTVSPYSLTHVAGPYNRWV

Here are results for 1 substance from paper PMC3653909.

The target in one assay is T1, Cxxc4 (mouse) (UniProt Q6NXI8).
T1 sequence: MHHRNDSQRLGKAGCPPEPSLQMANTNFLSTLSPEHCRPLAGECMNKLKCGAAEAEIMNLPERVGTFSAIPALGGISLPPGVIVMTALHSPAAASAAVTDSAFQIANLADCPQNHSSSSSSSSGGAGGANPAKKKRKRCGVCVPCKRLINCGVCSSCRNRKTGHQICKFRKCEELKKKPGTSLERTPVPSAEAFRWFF
Description: fluorescent three hybrid assay (F3H); BHK cells with a lac operator array cotransfected with GBP-lacI, GFP-bait and Ch-prey; the bait is anchored to the array and colocalization of the prey at the array is scored; cells fixed and imaged 16 h after transfection.

For the next assay, the target named is T2, Cxxc5 (mouse) (UniProt Q91WA4).
T2 sequence: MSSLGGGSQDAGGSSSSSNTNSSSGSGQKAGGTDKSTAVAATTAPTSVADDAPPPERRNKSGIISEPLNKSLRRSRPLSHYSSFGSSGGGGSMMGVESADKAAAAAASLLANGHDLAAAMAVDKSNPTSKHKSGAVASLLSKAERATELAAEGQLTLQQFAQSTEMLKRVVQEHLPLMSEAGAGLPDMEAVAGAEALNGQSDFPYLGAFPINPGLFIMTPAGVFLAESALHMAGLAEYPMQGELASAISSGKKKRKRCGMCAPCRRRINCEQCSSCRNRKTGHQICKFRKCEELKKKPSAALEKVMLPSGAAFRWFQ
Described as above.

Regarding “Tet1 (from UniProt Q3URK3 1-2039) (enzyme)”, the binding result with Cxxc4 (mouse) and with Cxxc5 (mouse) was “no binding” each time.
